# Measurements reported in PubChem BioAssay AID504786 (Drosophila RNAi Screening Center, 2011).
# Assay: 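Positive regulators of HIF-driven reporter output in Drosophila cells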 (primary screen)
# Cell system: Drosophila S2 cells with a stable HIF luciferase reporter
# Reagents: long dsRNA against Drosophila genes, about 0.2 µg dsRNA per well of a 384-well plate
# Duration: three days of knock-down, then 20 h of DFO before reading
# Treatment: desferrioxamine (DFO) at 100 µM, an iron chelator that mimics hypoxia, for 20 h
# Detection: 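HIF reporter luminescence in cells given 100 µM DFO for 20 h, using the mouse ldh-a hypoxia-response element, scored as per-plate z-scores; higher means greater loss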
# Scale: z-score: higher = stronger loss of HIF reporter signal
# The deposit covers about 21,000 reagents; shown is an unselected part of those that have a named target and a result. 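Primary screen; positive scores mean lost reporter signal, so the sign may be inverted from the usual convention.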 A plus sign joins genes that one reagent is predicted to hit. Further read-outs or replicates are left out here. No sequences are given here.
Gene,DRSC id,"z-score, replicate 1","z-score, replicate 2","z-score, replicate 3"
CG4592,DRSC02761,-0.3,-0.4,
CG30222,DRSC04125,0.1,0.3,
CG30222,DRSC04262,-0.2,-0.7,
CG6503,DRSC16056,-0.2,0.3,
Axn,DRSC14120,0.1,0,-0.4
Jheh3,DRSC06533,-0.2,-0.2,
CG8292,DRSC03082,-0.2,-0.4,
GNBP2,DRSC10404,-0.3,-0.3,
CG6847,DRSC19213,-0.2,-0.4,
CG6847,DRSC20009,-0.4,0.5,
CG32603,DRSC19409,-0.1,-0.9,
CG7164,DRSC03018,-0.1,-0.1,
CG14868,DRSC14991,-0.5,-0.3,
Nrg,DRSC17573,-0.5,-0.3,
Nrg,DRSC18688,-0.3,-0.6,
Spn42Dd,DRSC05024,-0.2,0.1,
CG13837,DRSC14687,-0.3,-0.3,
boi,DRSC18425,-0.2,-0.8,
boi,DRSC18598,-0.2,0,
CG6125,DRSC15970,-0.2,-0.6,
CG5674,DRSC02874,-0.2,2.5,
CG15525,DRSC15062,0,-0.1,
Sry-alpha,DRSC16867,0.1,-0.3,0.1
Pex13,DRSC06877,-0.3,-0.6,
Fibp,DRSC11031,-0.3,-0.2,
CG34331,DRSC20679,-0.1,-0.2,
Ing5,DRSC03188,0.5,0.7,
Ctf4,DRSC06380,-0.1,-0.1,
Gr89a,DRSC15023,0,0.5,
exd,DRSC20330,-0.3,0.2,
Iris,DRSC00663,-0.3,-0.4,
path,DRSC10361,0,0.4,
CG10182,DRSC14202,0.3,1.2,
Uch-L5R,DRSC19825,-0.4,-0.5,
CG32246,DRSC08115,0.4,0.7,
fz,DRSC11348,-0.3,-0.4,
CG13315,DRSC09986,-0.3,0.3,
Obp59a,DRSC04160,-0.3,-0.3,
CG6479,DRSC10647,-0.1,0,
psq,DRSC07668,1.5,2,
Cpsf73,DRSC16291,1.4,0.8,
Tbcb,DRSC06067,-0.5,-1.1,
trp,DRSC17088,0.1,-0.6,
CRMP,DRSC12073,0.5,-0.2,
CRMP,DRSC12345,-0.3,-0.3,
CG7453,DRSC20046,0.1,-0.1,
Syx18,DRSC14628,-0.3,-0.8,
CG33483,DRSC14019,0,-0.1,
Pvf1,DRSC20024,-0.3,-0.2,
cv,DRSC17833,-0.2,-0.2,
CG11438,DRSC11660,-0.3,-0.3,
sd,DRSC20370,1.4,1.8,
CG16898,DRSC06635,-0.3,-0.1,
spdo,DRSC13988,-0.6,0,
Fpgs2,DRSC00600,-0.2,-0.3,
Fum3,DRSC10592,-0.2,-0.7,
lap,DRSC12628,-0.4,-0.7,
Gnpnat,DRSC15405,-0.3,-1,
gig,DRSC11351,-0.6,-1.1,
CG10494,DRSC04072,-0.2,-0.5,
Cdc14,DRSC03013,-0.1,-0.2,
LysP,DRSC08676,-0.3,-0.5,
Prip,DRSC07044,-0.3,-0.5,
Orc6,DRSC07497,-0.2,0,
ODA-Dnal1,DRSC07270,-0.3,-0.6,
Obp83a,DRSC12362,0.4,0.5,
BEAF-32,DRSC05927,-0.3,0,
CG5002,DRSC06911,-0.2,-0.2,
CG5623,DRSC15848,-0.2,-0.3,
Balat,DRSC06852,-0.3,-0.3,
tadr,DRSC03177,-0.3,-0.4,
Dro,DRSC07406,-0.3,0.1,
drosha,DRSC07607,0.4,0.4,
Lrr47,DRSC03365,-0.4,-0.5,
Sse,DRSC09746,-0.1,0.5,
CG7322,DRSC20036,-0.4,-0.2,
CG34133,DRSC16319,-0.4,-0.4,
schlank,DRSC18102,-0.2,0.9,
schlank,DRSC18313,-0.2,-0.2,
CG15236,DRSC04970,-0.3,-0.5,
CG31975 + ovm,DRSC00323,-0.1,0.3,
Arl5,DRSC10785,-0.1,-0.2,
CG2519,DRSC12312,-0.4,-0.3,
CG31717,DRSC01121,-0.3,-0.3,
Hacd1,DRSC02988,-0.2,-0.3,
CG31446,DRSC13111,-0.2,0.2,
Oatp33Ea,DRSC02859,-0.4,0,
CG4707,DRSC04483,0.1,0.1,
CG11141,DRSC06048,-0.1,0,
Chpf,DRSC19491,-0.2,0,
Chpf,DRSC19893,-0.2,-0.5,
RpS6,DRSC18712,7.4,4.1,
trbd,DRSC16494,-0.3,-0.6,
CG31917 + Tfb5,DRSC02362,-0.4,-0.4,
CG31917 + Tfb5,DRSC02363,-0.2,-0.3,
Uxs,DRSC10941,-0.3,0,
Josd,DRSC18323,-0.2,-0.6,
Cen,DRSC02704,-0.1,-0.4,
mRpL18,DRSC06142,1.8,0.7,
CG15880,DRSC00474,-0.2,-0.6,
Sdr,DRSC15517,-0.3,-0.3,
mms4,DRSC06249,-0.2,-0.3,
CG15128,DRSC06550,-0.2,0.8,
Tmlh,DRSC15563,0.4,-0.2,
sosie,DRSC14636,-0.4,-0.6,
CG32652 (retired record),DRSC18942,-0.3,-0.1,-0.3

In a second layout: 5 of the entries above.
CG7322 [DRSC20036] | z-score, replicate 1: -0.4; z-score, replicate 2: -0.2
CG34133 [DRSC16319] | z-score, replicate 1: -0.4; z-score, replicate 2: -0.4
schlank [DRSC18102] | z-score, replicate 1: -0.2; z-score, replicate 2: 0.9
schlank [DRSC18313] | z-score, replicate 1: -0.2; z-score, replicate 2: -0.2
CG15236 [DRSC04970] | z-score, replicate 1: -0.3; z-score, replicate 2: -0.5
